Results taken from patent publication US20070004634A1.
Results are given in words; binding and its absence hold for the method and conditions named. Some binding calls cover weakened binding; strength is not graded here.

molecular target: soluble human insulin receptor-immunoglobulin heavy chain chimera (sIR-Fc; Bass et al., 1996) (human) (UniProt P06213); assay: FP competition with FITC-RP9

Row | binding | Binder
1 | binds | DYKDFYDAIDQLVRGSARAGGTRD [20E2 (D118)]
2 | binds | CWARPCGDAANFYDWFVQQAS [C1 (D112)]
3 | binds | FHENFYDWFVQRVSKK [H2C (D117), as listed in Tables 21 and 22]
